# Data: the supplement of paper PMC8256030
# Values joined by “and” are separate entries in the source; they are usually repeats but may differ in a detail not shown here. Equal entries are not always repeated. Structures can show the parent of a compound that is named as a salt. Some of the results follow. Single values are uncertain here, since repeats match poorly.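 HEK293T cells were given each compound shortly before transfection with a reporter in which red mCherry is followed by the SARS-CoV-2 frameshift element and then GFP in the −1 frame, so GFP appears only after frameshifting.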
# What was measured:
# HEK293T = assay: percent viability (nuclei count) relative to control; higher = more viable cells; conditions: 10 µM; 24 h
# [1] = system: SARS-CoV-2 -1 PRF reporter mCherry-FSE-GFP(-1); assay: mCherry (red) intensity as percent of control; higher = higher upstream reporter expression; conditions: 10 µM; 24 h; HEK293T
# [2] = system: SARS-CoV-2 -1 PRF reporter mCherry-FSE-GFP(-1); assay: percent effect, decrease of GFP/mCherry ratio (-1 PRF reporter) relative to controls; higher = stronger frameshift inhibition; conditions: 10 µM; 24 h; HEK293T
Compound,percent viability (HEK293T),mCherry [1],percent effect [2]
COP(=S)(OC)Oc1ccc(SC)c(C)c1,358%,90.4%,0.465%
C[CH2][Hg][S]c1ccccc1C(=O)[O-].[Na+] [thiomersal],6.15%,14%,-14.1%
CC(=O)OC(c1ccccc1)C1CCCCN1 (configuration not stated) [levofacetoperane],99.9%,61.6%,-0.218%
NP(N)(=O)NC(=O)c1ccc(F)cc1 [flurofamide],136%,80.6%,1.5%
C[C@]12O[C@H](C[C@]1(O)CO)n1c3ccccc3c3c4c(c5c6ccccc6n2c5c31)CNC4=O [lestaurtinib],35.2%,685%,-11.7%
C=CC[C@]1(O)CC[C@H]2[C@@H]3CCC4=CC(=O)CCC4=C3C=C[C@@]21C [altrenogest],175%,86.4%,-0.236%
C[C@]12CCC(=O)C(O)=C1CC[C@@H]1[C@@H]2CC[C@]2(C)C(=O)CC[C@@H]12 [formestane],172%,85.2%,-5.26%
N#Cc1ccc(N2CCN(C(=O)COc3ccc4[nH]cc(CCN)c4c3)CC2)cc1 [Donitriptan monohydrochloride],161%,107%,1.88%
N[C@@H]1C[C@H]1c1ccccc1.N[C@H]1C[C@@H]1c1ccccc1 [tranylcypromine],295%,111%,-6.14%
CN=C1CN(O)C(c2ccccc2)=c2cc(Cl)ccc2=N1 [Libritabs],209%,113%,6.39%
NC(=O)OCC(O)c1ccccc1 (configuration not stated) [styramate],207%,92.3%,-9.94%
O=C1Nc2ccc(Cl)cc2C(c2ccccc2)=NC1O (configuration not stated) [oxazepam],129%,65.1%,-3.7%
C#CCN(C)[C@H](C)Cc1ccccc1 [selegiline],199%,94.4%,-4.74%
CC(C)(C)NCC(O)c1ccccc1F (configuration not stated) [flerobuterol],139%,102%,-10.1%
O=C(O)c1ccc2[nH]cc(CCCCN3CC=C(c4ccccc4)CC3)c2c1 [carmoxirole],120%,126%,0.595%
CCC(C)(C)O,381%,102%,-0.918%
CN1CC[C@]23c4c5ccc(O)c4O[C@H]2C(=O)CC[C@H]3[C@H]1C5 [hydromorphone],130%,114%,2.02%
CCC1C(C)=NN=C(c2ccc(OC)c(OC)c2)c2cc(OC)c(OC)cc21 (configuration not stated) [tofisopam],69.6%,109%,-6.23%
CN(C(=O)CNC(=O)[C@@H](N)CCCCN)c1ccc(Cl)cc1C(=O)c1ccccc1 [avizafone],295%,76.6%,0.365%
Oc1ccc(Cl)cc1Cc1cc(Cl)ccc1O [dichlorophen],347%,92.6%,-4.01%
O=C1CCO1 [propiolactone],162%,118%,-8.84%
CN1[C@@H]2CC[C@H]1C[C@@H](OC(=O)C(CO)c1ccccc1)C2 (some centres not stated) [Atropine],83%,86.4%,-6.79%
C[C@]12CCC(=O)C(O)=C1CC[C@@H]1[C@@H]2CC[C@]2(C)C(=O)CC[C@@H]12,307%,98.9%,-3.77%
CN(C)C1=NC(=O)C(c2ccccc2)O1 (configuration not stated) [tozalinone],149%,90.6%,-7.23%
CC(=O)N(C)c1cccc(-c2ccnc3c(C(=O)c4cccs4)cnn23)c1 [indiplon],188%,110%,-2.77%

Compound,percent viability (HEK293T),mCherry [1],percent effect [2]
CCNC1=NC(=O)C(c2ccccc2)O1 (configuration not stated) [fenozolone],238%,69%,-1.06%
c1ccc2c(c1)CCN1CCNCC21 (configuration not stated),152%,96.8%,-0.777%
CC(C)[N+](C)(CCC(C(N)=O)(c1ccccc1)c1ccccc1)C(C)C [isopropamide iodide],154%,109%,-8.69%
CC1(C)C(C=C(Cl)Cl)C1C(=O)OC(C#N)c1cccc(Oc2ccccc2)c1 (configuration not stated),343%,107%,2.01%
CN1[C@H]2CC[C@@H]1[C@@H](C(=O)O)[C@@H](O)C2,310%,86.4%,-0.776%
O=C1CN=C(c2ccccc2)c2cc(Cl)ccc2N1CC1CC1 [prazepam],40.5%,71.4%,-4.66%
Oc1ccc2c3c1O[C@H]1c4[nH]c5ccccc5c4C[C@@]4(O)[C@@H](C2)N(CC2CC2)CC[C@]314 [Naltrindole·HCl],303%,71.2%,-2.11%
O=C(N/N=C/c1ccc([N+](=O)[O-])o1)c1cc([N+](=O)[O-])cc([N+](=O)[O-])c1O,54.9%,120%,-0.526%
C=CC[C@]1(O)CC[C@H]2[C@@H]3CCC4=CCCC[C@@H]4[C@H]3CC[C@@]21C [allylestrenol],213%,111%,-2.86%
C[N+]1(C)[C@@H]2C[C@@H](OC(=O)[C@H](CO)c3ccccc3)C[C@H]1[C@@H]1O[C@@H]12 [Pamine],60.2%,112%,-1.87%
CC[C@@H](CO)NC(=O)[C@@H]1C=C2c3cccc4c3c(cn4C)C[C@H]2N(C)C1,329%,99.1%,0.211%
CCC(C)C1(CC)C(=O)NC(=O)NC1=O (configuration not stated) [secbutabarbital],268%,85.6%,-4.57%
Fc1cccc(Br)c1NC1=NCCN1 [romifidine],243%,98.8%,-5.89%
C=CCN1C[C@H](C(=O)N(CCCN(C)C)C(=O)NCC)C[C@@H]2c3cccc4[nH]cc(c34)C[C@H]21 [cabergoline],166%,67%,0.995%
O=C1CN=C(c2ccccc2)c2c(sc3c2CCCC3)N1 [bentazepam],39.6%,84.1%,-6.82%
c1ccc2nc(N3CCNCC3)ccc2c1 [quipazine],431%,100%,-0.952%
NC(=O)OC[C@@H](O)c1ccccc1Cl [carisbamate],409%,64%,0.791%
CN1[C@@H]2CC[C@H]1C[C@@H](OC(=O)c1cc(Cl)cc(Cl)c1)C2 [bemesetron],102%,110%,1.77%
O=C1C=C2C=C[C@@H]3C[C@@]2(O1)[C@H]1CCCCN31 [securinine],26.1%,20%,-2.46%
CCN(CC)Cc1nccn1-c1ccc([N+](=O)[O-])cc1C(=O)c1ccccc1Cl [nizofenone],180%,96.7%,-1.89%
CCC1(c2ccccc2)C(=O)NC(=O)N(C(=O)c2ccccc2)C1=O (configuration not stated) [benzobarbital],118%,109%,1.42%
CCCC(=O)OCC[N+](C)(C)C [Butyrylcholine],225%,88.6%,2.4%
CCCCNC(=O)OCC(C)(CCC)COC(N)=O (configuration not stated) [tybamate],137%,93.4%,-5.14%
C[C@]1(O)CC[C@H]2[C@@H]3CC[C@@]45O[C@]4(C)C(O)=C(C#N)C[C@]5(C)[C@H]3CC[C@@]21C [epostane],160%,73.7%,-0.25%
Nc1ccncc1 [fampridine],245%,114%,1.52%

# Shown tab-delimited: part of the list above
Compound	percent viability (HEK293T)	mCherry [1]	percent effect [2]
Fc1cccc(Br)c1NC1=NCCN1 [romifidine]	243%	98.8%	-5.89%
C=CCN1C[C@H](C(=O)N(CCCN(C)C)C(=O)NCC)C[C@@H]2c3cccc4[nH]cc(c34)C[C@H]21 [cabergoline]	166%	67%	0.995%
O=C1CN=C(c2ccccc2)c2c(sc3c2CCCC3)N1 [bentazepam]	39.6%	84.1%	-6.82%

# Remaining list, next part

Compound,percent viability (HEK293T),mCherry [1],percent effect [2]
COc1cccc(C2(O)CCCCC2CN(C)C)c1 (configuration not stated),294%,83.8%,-3.19%
CCCCCCCCC(=O)NCc1ccc(O)c(OC)c1 [nonivamide],420%,97%,-7.39%
CC(C)C[C@H]1C(=O)N2CCC[C@H]2[C@]2(O)O[C@](NC(=O)[C@@H]3C=C4c5cccc6[nH]c(Br)c(c56)C[C@H]4N(C)C3)(C(C)C)C(=O)N12,276%,93.4%,-2.46%
CC(N)Cc1ccccc1 (configuration not stated) [amfetamine],176%,113%,0.397%
C[C@@H](Cc1ccccc1)N(C)Cc1ccccc1 [Didrex],231%,91%,-2.67%
NCCc1cc(O)c(O)cc1O [oxidopamine],133%,111%,-7.84%
O=C1CCCCC1CN1CCCCC1 (configuration not stated) [pimeclone],125%,77.8%,0.763%
CC(C)(N)Cc1ccccc1 [phentermine],229%,94.4%,-4.02%
C[C@]12CCC(=O)C[C@@H]1CC[C@@H]1[C@@H]2CC[C@]2(C)[C@@H](O)CC[C@@H]12 [androstanolone],149%,80.4%,-3.86%
O=C(O)CCCO,170%,93.5%,-0.551%
CC[C@@H](CO)NC(=O)[C@@H]1C=C2c3cccc4c3c(cn4C)C[C@H]2N(C)C1 [methysergide],178%,86.8%,-2.81%
CN1C(=O)COc2c(C(=O)NC3CN4CCC3CC4)cc(Cl)cc21 (configuration not stated) [azasetron],66.7%,95.5%,-0.48%
Clc1cccc(SC2CCNCC2)n1 [anpirtoline],142%,86.6%,-12.2%
NC1=NCC(c2ccc(Cl)cc2)O1 (configuration not stated) [clominorex],272%,92.7%,-2.93%
COc1ccc(Cc2nccc3cc(OC)c(OC)cc23)cc1OC,129%,94.6%,-9.11%
CCOC(=O)c1ncn2c1CN(C)C(=O)c1c(I)cccc1-2 [iomazenil (123I)],107%,87.8%,-0.353%
c1ccc(C2(c3ccccc3)OC[C@@H]([C@H]3CCCCN3)O2)cc1 [levoxadrol],247%,105%,-1.06%
C#CCN(C)[C@H](C)Cc1ccccc1,176%,111%,-0.232%
COP(=S)(OC)Oc1cc(Cl)c(Cl)cc1Cl [fenclofos],153%,101%,-2.86%
C=C(C)[C@H]1CN[C@H](C(=O)O)[C@H]1CC(=O)O,170%,121%,2.73%
COC(=O)C(c1ccccc1)C1CCCCN1 (configuration not stated) [methylphenidate],319% and 226%,97.3% and 106%,-0.76% and -1.77%
CN[C@]1(c2ccccc2Cl)CCCCC1=O [esketamine],196%,86.6%,1.23%
C[C@]12CC[C@H]3[C@@H](CC[C@@]45O[C@@H]4C(O)=C(C#N)C[C@]35C)[C@@H]1CC[C@@H]2O [trilostane],117%,91.8%,-2.44%
NCC(CC(=O)O)c1ccc(Cl)cc1 (configuration not stated) [baclofen],281%,79.7%,0.71%
